According to publication PMC11530130, “Peripherally restricted PICK1 inhibitor mPD5 ameliorates pain behaviors in murine inflammatory and neuropathic pain models” (JCI Insight, 2024):
Where “and” joins values, the source holds several entries; their conditions need not be identical. Equal values may be shown once. Further values from the same series stand in other lists.

Legend:
[1] = system: mice, CFA model of inflammatory pain; experiment: CFA model of inflammatory pain, von Frey, i.t. administration; format: in vivo, mouse; conditions: CFA day 2, i.t. 20 μM, 7 μL, listed as myr
Procedure: Unless otherwise specified, wild type C57BL/6NRj mice (male and female, aged eight-weeks at the beginning of experiment) were used (Janvier, France). Animals were allowed at least seven days of habituation to the animal facility before initiation of experiment. Mice were group-housed in a temperature-controlled room, maintained on a 12/12hour light/dark cycle (lights on at 6 A.M) with free access to standard rodent chow (Altromin 1342 (Brogaarden, […]
Drug administration and dosing for animal experiments.
All compounds were diluted in PBS or saline (depending on control) and administered through different routes i.t. (7 μL/mouse)), i.p. (10 μL/g) or s.c. (10 μL/g)) as indicated. Doses of mPD5 were based on previous studies with TPD5 (6) with a subcutaneous dose-range included in the CFA studies further guiding dose selection for SNI, STZ and CIBP studies. Pregabalin dose was chosen based on previous experience from Phenotype Expertise (Marseilles, France). In the CIBP model, a dose of […] morphine was chosen to avoid hyperactivity, though known to provide only partial pain relief in this model. In remaining experiments, 5 mg/kg morphine was chosen, known to provide full pain relief, except for the conditioned place preference experiment, where 10 mg/kg was used instead in accordance with literature.
C57BL/6 mice were injected s.c. with 10 umol/kg of mPD5 conjugated to Vivotag645 (WuXi, China) or PBS one hour prior to transcardial perfusion with PBS followed by 4% PFA (n=3).
The spinal columns and the brains were dissected and post fixated in 4% PFA overnight at 4 °C. Next, the samples were washed in PBS with 0.02% sodium azide and cleared with a protocol combining elements from PEGASOS (7) and iDISCO (8) which obtained sufficient transparency while still keeping the Vivotag645 fluorophore intact. For the spinal columns, bone was decalcified with 20% EDTA tetrasodium salt (Sigma-Aldrich) in demineralized water for 4 days at 37 °C. Both spinal columns and brains were gently bleached with 25% Quadrol (Sigma-Aldrich) in demineralized water at 37 °C for 3 days followed by 5% ammonium (VWR, Denmark) in demineralized water for one day at 37 °C. Next, the samples were dehydrated in a dilution series of methanol (VWR, Denmark) in demineralized water (20%, 40%, 60%, 80%, 100%, and 100%) with 1.5 hours in each methanol concentration. The samples were delipidated overnight in a solution containing 2/3 dichloromethane (Sigma-Aldrich) and 1/3 methanol. The samples were washed two times in dichloromethane before index matching with ethyl cinnamate (Sigma-Aldrich). The spinal columns were imaged on a 3i Cleared Tissue LightSheet microscope with Slidebook software (3i). The Slidebook software was furthermore used to stitch the images. High resolution light sheet of the dorsal root ganglions (DRGs) and the imaging of the brains were performed with the Zeiss Lightsheet 7 with Zeiss Zen Black software. A custom Python script was used to stitch the imaged brains. After stitching visualization was optimized in Imaris software (Imaris Oxford instruments).
Immunocytochemistry on primary dorsal root ganglion (DRG) neurons
DRG cell cultures were prepared from adult C57BL/6 mice from Janvier. After transcardial perfusion with PBS, approximately 35 DRGs from one mouse were dissected and placed in ice cold Ham’s F12 medium (Gibco). The tissue was incubated in enzyme mix (3 mL of 3 mg/mL dispase II from Sigma Aldrich and 200 µl of 12.5 mg/mL clostridium histolyticum collagenase from Sigma Aldrich) for one hour at 37 °C. The enzyme mix was removed and warm Ham’s F12 medium was added. The cells were mechanically separated with serial trituration using fire-polished glass pipettes until the tissue was dissolved. The cells were passed through a 70 […]
K2 tubes at 5 min, 30 min, 1 hour, 5 hours, 12 hours, 24 hours, and 48 hours and centrifuged (app 4 ℃, 3200 g, 10 min) for collection of plasma. Plasma was transferred to 96 well plates and quick-frozen over dry ice and kept at -60 ℃ until LC-MS/MS analysis. […]

[2] = system: mice, spared nerve injury (SNI) model; experiment: SNI model, von Frey, repeated s.c. administration on 2 consecutive days; format: in vivo, mouse; parameters: von Frey threshold, Fig 7A, individual mice: unit not given here
Source text: Repeated and sustained administration of mPD5 in the SNI model.
For the experiment with repeated administration of mPD5 (Figure 7A), male C57BL/6J (Janvier, France) mice underwent surgery leading to partial nerve injury, by cutting the peroneal and tibial nerves, producing hypersensitivity of the remaining sural nerve (SNI) as described in the “Induction of neuropathic pain (SNI model).”-section. On day 21 after surgery, hyperalgesia was confirmed by using von Frey filaments to induce mechanically evoked hypersensitivity and measure paw withdrawal threshold of the animals as described in the “Mechanically-evoked pain (von Frey).”-section. On the same day, mice were injected s.c. with 2, 10, or 50 μmol/kg mPD5 (10 μL/g) and evoked pain was tested again with the use of von Frey filaments at 1 and 5 hours after injection. 24 hours after the first injection, mice were injected s.c. with 2, 10, or 50 μmol/kg mPD5 (10 μL/g) again and evoked pain was tested with the use of von Frey filaments at 1, 5, and 24 hours after the second injection. […]

## CCCCCCCCCCCCCC(=O)N(CCOCCOCCC(=O)N[C@@H](Cc1c[nH]cn1)C(=O)N[C@@H](Cc1c[nH]c2ccccc12)C(=O)N[C@@H](CC(C)C)C(=O)N[C@@H](CCCCN)C(=O)N[C@H](C(=O)O)C(C)C)CCOCCOCCC(=O)N[C@@H](Cc1c[nH]cn1)C(=O)N[C@@H](Cc1c[nH]c2ccccc12)C(=O)N[C@@H](CC(C)C)C(=O)N[C@@H](CCCCN)C(=O)N[C@H](C(=O)O)C(C)C [mPD5, myristoyl-NPEG4-(HWLKV)2]
[1]; contralateral paw, 1 hr post drug adm.
  paw withdrawal threshold (von Frey), individual mice: 1.4 (5×) and 2
[1]; contralateral paw, 5 hrs post drug adm.
  paw withdrawal threshold (von Frey), individual mice: 1.4 (2×) and 1 (2×) and 2 (2×)
[1]; contralateral paw, 24 hrs post drug adm.
  paw withdrawal threshold (von Frey), individual mice: 1 (2×) and 2 (3×) and 1.4
[1]; ipsilateral paw, 1 hr post drug adm.
  paw withdrawal threshold (von Frey), individual mice: 0.6 and 0.16 and 2 (2×) and 0.4 and 1
[1]; ipsilateral paw, 5 hrs post drug adm.
  paw withdrawal threshold (von Frey), individual mice: 0.16 (3×) and 2 and 1 and 1.4
[1]; ipsilateral paw, 24 hrs post drug adm.
  paw withdrawal threshold (von Frey), individual mice: 0.16 (4×) and 0.4 (2×)
[2]; A_contra, hr 5 day2
  von Frey threshold, contralateral paw, Fig 7A, individual mice: 2
[2]; A_contra, hr 24 day 3
  von Frey threshold, contralateral paw, Fig 7A, individual mice: 1.4 (3×) and 1 (4×) and 2
[2]; B_contra, hr 5 day2
  von Frey threshold, contralateral paw, Fig 7A, individual mice: 2 (3×) and 1 (4×) and 1.4
[2]; B_contra, hr 24 day 3
  von Frey threshold, contralateral paw, Fig 7A, individual mice: 1.4 (3×) and 1 (4×) and 2
[2]; C_comtra, hr 5 day2
  von Frey threshold, contralateral paw, Fig 7A, individual mice: 1.4 (4×) and 1 (4×)
[2]; C_comtra, hr 24 day 3
  von Frey threshold, contralateral paw, Fig 7A, individual mice: 2 and 1 (5×) and 1.4 (2×)
[2]; group 2, hr 5 day2
  von Frey threshold, Fig 7A, individual mice: 0.6 (2×) and 0.4
[2]; group 2, hr 24 day 3
  von Frey threshold, Fig 7A, individual mice: 0.07 (3×) and 0.16 (4×) and 0.4
[2]; group 10, hr 5 day2
  von Frey threshold, Fig 7A, individual mice: 0.6 (2×) and 0.4 (3×) and 0.16
[2]; group 10, hr 24 day 3
  von Frey threshold, Fig 7A, individual mice: 0.16 (2×) and 0.4 (3×) and 0.07 (3×)
[2]; group 50, hr 5 day2
  von Frey threshold, Fig 7A, individual mice: 0.4 (5×) and 0.6 (2×) and 0.07
[2]; group 50, hr 24 day 3
  von Frey threshold, Fig 7A, individual mice: 0.4 (2×) and 0.07 (4×) and 0.16 (2×)
